Experimental data from article PMC2650409.
These are yes or no findings as the source states them, for the method shown. In cells and extracts the contact can be indirect.

Amino acid sequences for entries named in this document (tags omitted).
UniProt P32121: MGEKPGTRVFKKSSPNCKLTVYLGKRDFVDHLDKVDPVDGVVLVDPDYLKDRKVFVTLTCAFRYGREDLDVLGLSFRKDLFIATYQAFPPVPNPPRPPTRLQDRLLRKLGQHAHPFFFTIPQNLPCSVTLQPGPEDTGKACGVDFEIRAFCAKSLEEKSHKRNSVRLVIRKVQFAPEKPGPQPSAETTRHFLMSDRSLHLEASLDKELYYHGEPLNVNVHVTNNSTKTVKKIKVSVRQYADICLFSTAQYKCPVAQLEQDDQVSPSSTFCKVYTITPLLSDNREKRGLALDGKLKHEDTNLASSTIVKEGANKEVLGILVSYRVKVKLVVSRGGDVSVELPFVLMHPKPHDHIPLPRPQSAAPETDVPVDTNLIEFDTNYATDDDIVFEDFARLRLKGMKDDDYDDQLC
UniProt P49407: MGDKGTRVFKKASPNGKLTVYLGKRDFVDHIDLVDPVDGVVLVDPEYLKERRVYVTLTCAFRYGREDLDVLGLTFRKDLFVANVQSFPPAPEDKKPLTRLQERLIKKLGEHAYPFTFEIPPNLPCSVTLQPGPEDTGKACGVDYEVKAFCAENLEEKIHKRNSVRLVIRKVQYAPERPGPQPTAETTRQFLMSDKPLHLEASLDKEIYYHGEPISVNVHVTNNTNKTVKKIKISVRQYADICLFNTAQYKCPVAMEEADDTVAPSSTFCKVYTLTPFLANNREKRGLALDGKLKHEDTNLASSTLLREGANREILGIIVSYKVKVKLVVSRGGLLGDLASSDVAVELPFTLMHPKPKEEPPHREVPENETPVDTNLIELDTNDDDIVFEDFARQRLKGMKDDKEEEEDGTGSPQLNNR

Experiments:
[1] = target: β-arrestin 2 (human (endogenous in HEK 293)) (UniProt P32121); assay: co-IP; HEK-GHSR1a cells, serum-starved, ghrelin 100 nM 10 min at 37°C; NP-40 lysis buffer; IP with anti-β-arrestin 1 or anti-β-arrestin 2; blots with pAkt HM (S473), pAkt A-loop (T308), pPDK1 (S241), Rictor, mTOR
[2] = target: β-arrestin 1 (human (endogenous in HEK 293)) (UniProt P49407); assay: as above

binding [1]: no binding
binding [2]: no binding
B1: 3-phosphoinositide-dependent protein kinase 1 (PDK1), pPDK1 (S241) (enzyme, UniProt O15530 1-556)
chain: MARTTSQLYDAVPIQSSVVLCSCPSPSMVRTQTESSTPPGIPGGSRQGPAMDGTAAEPRPGAGSLQHAQPPPQPRKKRPEDFKFGKILGEGSFSTVVLARELATSREYAIKILEKRHIIKENKVPYVTRERDVMSRLDHPFFVKLYFTFQDDEKLYFGLSYAKNGELLKYIRKIGSFDETCTRFYTAEIVSALEYLHGKGIIHRDLKPENILLNEDMHIQITDFGTAKVLSPESKQARANSFVGTAQYVSPELLTEKSACKSSDLWALGCIIYQLVAGLPPFRAGNEYLIFQKIIKLEYDFPEKFFPKARDLVEKLLVLDATKRLGCEEMEGYGPLKAHPFFESVTWENLHQQTPPKLTAYLPAMSEDDEDCYGNYDNLLSQFGCMQVSSSSSSHSLSASDTGLPQRSGSNIEQYIHDLDSNSFELDLQFSEDEKRLLLEKQAGGNPWHQFVENNLILKMGPVDKRKGLFARRRQLLLTEGPHLYYVDPVNKVLKGEIPWSQELRPEAKNFKTFFVHTPNRTYYLMDPSGNAHKWCRKIQEVWRQRYQSHPDAAVQ
modifications: phosphoserine at 241
